The supplement of paper PMC8104966
The list shows a part of the results. This data set is noisy: repeats of one test often differ as much as different tests do.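 Fusion between ACE2-bearing and full-length-spike-bearing U2OS cells was measured by imaging as the percentage of nuclei with both cell types' fluorescent markers. An inhibitory hit is a non-toxic compound whose fusion z-score is below -3, more than three standard deviations beneath the plate's DMSO wells.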

Test system: U2OS ACE2 x SARS-CoV-2 spike co-culture
Test: cell-cell fusion (fraction fused) z-score vs plate DMSO control; higher = more fusion
Details: 30 µM; 5 h; toxicity class: non-toxic, passed QC

| Structure (SMILES) | cell-cell fusion (z-score) |
| --- | --- |
| CC(=O)OC1CCC23C(=O)OC45CCC(C6=CC(=O)OC6)C4(C)CCC2C5CCC3(O)C1 (configuration not stated) | inactive: 2.35 |
| N[C@@H](Cc1cc(I)c(Oc2cc(I)c(O)c(I)c2)c(I)c1)C(=O)O | inactive: 2.26 |
| COc1cc(C(=O)NCc2ccc(OCCN(C)C)cc2)cc(OC)c1OC.Cl | inactive: 2.55 |
| O=c1oc(Cl)c(Cl)c2ccccc12 [3,4-Dichloroisocoumarin] | inactive: 2.67 |
| CCCCS(=N)(=O)CCC(N)C(=O)O (configuration not stated) | inactive: 3.79 |
| COc1ccc(Cl)cc1C(=O)NCCc1ccc(S(=O)(=O)NC(=O)NC2CCCCC2)cc1 | inactive: -1.17 |
| O=C(O)[C@@H]1CCN1 [L-azetidine-2-carboxylic acid] | inactive: 1.82 |
| CCCCCCC/C=C\CCCCCCCCC(=O)O [Oleic Acid] | inactive: 2.98 |
| O=C(/C=C/c1cccc(S(=O)(=O)Nc2ccccc2)c1)NO [Belinostat (PXD101)] | inactive: 0.466 |
| CN(C)CC(c1ccc(O)cc1)C1(O)CCCCC1.O=C(O)CCC(=O)O (configuration not stated) [Desvenlafaxine succinate hydrate] | inactive: 1.55 |
| CN(C)CC(c1ccc(O)cc1)C1(O)CCCCC1.O=C(O)CCC(=O)O (configuration not stated) | inactive: 2.49 |
| CNCC(O)c1ccc(O)cc1 (configuration not stated) | active: -3.74 |
| O=C([O-])c1cc(/N=N/c2ccc(O)c(C(=O)[O-])c2)ccc1O.[Na+].[Na+] | inactive: 0.393 |
| Cn1c(=O)c2nc(C3CCCC3)[nH]c2n(C)c1=O | inactive: 1.23 |
| Cl.N=C(N)NC(=O)c1nc(Cl)c(N)nc1N [Amiloride hydrochloride] | inactive: 2.28 |
| Cc1cccn2c(=O)c(-c3nnn[n-]3)cnc12.[K+] [Pemirolast potassium] | inactive: 2.87 |
| O=C1CCC[C@H]2[C@@H]3CCCN4CCC[C@H](CN12)[C@H]34 | inactive: 1.56 |
| CN1C(C(=O)Nc2ccccn2)=C(O)c2sccc2S1(=O)=O | inactive: 1.97 |
| NC(=O)c1ccc2[nH]c(-c3ccc(Oc4ccc(Cl)cc4)cc3)nc2c1 | active: -5.92 |

10 consecutive records already listed, for reference:

| Structure (SMILES) | cell-cell fusion (z-score) |
| --- | --- |
| CC(=O)OC1CCC23C(=O)OC45CCC(C6=CC(=O)OC6)C4(C)CCC2C5CCC3(O)C1 (configuration not stated) | inactive: 2.35 |
| N[C@@H](Cc1cc(I)c(Oc2cc(I)c(O)c(I)c2)c(I)c1)C(=O)O | inactive: 2.26 |
| COc1cc(C(=O)NCc2ccc(OCCN(C)C)cc2)cc(OC)c1OC.Cl | inactive: 2.55 |
| O=c1oc(Cl)c(Cl)c2ccccc12 [3,4-Dichloroisocoumarin] | inactive: 2.67 |
| CCCCS(=N)(=O)CCC(N)C(=O)O (configuration not stated) | inactive: 3.79 |
| COc1ccc(Cl)cc1C(=O)NCCc1ccc(S(=O)(=O)NC(=O)NC2CCCCC2)cc1 | inactive: -1.17 |
| O=C(O)[C@@H]1CCN1 [L-azetidine-2-carboxylic acid] | inactive: 1.82 |
| CCCCCCC/C=C\CCCCCCCCC(=O)O [Oleic Acid] | inactive: 2.98 |
| O=C(/C=C/c1cccc(S(=O)(=O)Nc2ccccc2)c1)NO [Belinostat (PXD101)] | inactive: 0.466 |
| CN(C)CC(c1ccc(O)cc1)C1(O)CCCCC1.O=C(O)CCC(=O)O (configuration not stated) [Desvenlafaxine succinate hydrate] | inactive: 1.55 |

Later entries.

| Structure (SMILES) | cell-cell fusion (z-score) |
| --- | --- |
| NCC(O)(CS(=O)(=O)O)c1ccc(Cl)cc1 (configuration not stated) [2-Hydroxysaclofen] | inactive: 0.773 |
| CC(C)CC1C(=O)N2CCC[C@H]2C2(O)O[C@](NC(=O)C3C=C4c5cccc6[nH]c(Br)c(c56)C[C@H]4N(C)C3)(C(C)C)C(=O)N12.CS(=O)(=O)O (some centres not stated) | inactive: 1.22 |
| CC[C@H]1[C@@H](O)[C@@H]2[C@H](CC[C@]3(C)[C@@H]([C@H](C)CCC(=O)O)CC[C@@H]23)[C@@]2(C)CC[C@@H](O)C[C@@H]12 [Obeticholic Acid] | inactive: 0.435 |
| CC(C)[C@H](N)C(=O)OCC(CO)OCn1cnc2c(=O)nc(N)[nH]c21.Cl (some centres not stated) [Valganciclovir hydrochloride] | inactive: 2.97 |
| NC(=O)CN1CCCC1=O [Piracetam] | inactive: 2.46 |
| NC(=O)CN1CCCC1=O | inactive: 2.58 |
| C=CC1=C(C)c2cc3[nH]c(cc4nc(cc5[nH]c(cc1n2)c(C)c5CCC(=O)O)C(CCC(=O)OC)=C4C)[C@@]1(C)C3=CC=C(C(=O)OC)[C@H]1C(=O)OC.C=CC1=C(C)c2cc3[nH]c(cc4nc(cc5[nH]c(cc1n2)c(C)c5CCC(=O)OC)C(CCC(=O)O)=C4C)[C@@]1(C)C3=CC=C(C(=O)OC)[C@H]1C(=O)OC [Verteporfin] | inactive: -1.81 |
| CC[C@@H]1C(=O)OC[C@@H]1Cc1cncn1C.O=[N+]([O-])O [Pilocarpine nitrate] | inactive: 2.93 |
| CC(C)(C)NCC(O)c1ccc(O)c(CO)c1 (configuration not stated) [Salbutamol] | inactive: -0.175 |
| CCOc1ccc(NC(=O)CC(C)O)cc1 (configuration not stated) | inactive: 2.96 |
| COc1ccc2c(c1)CCC(c1ccccc1)=C2c1ccc(OCCN2CCCC2)cc1.Cl [Nafoxidine] | inactive: -0.971 |
| CC(NC(C)(C)C)C(=O)c1cccc(Cl)c1.Cl (configuration not stated) [Bupropion hydrochloride] | inactive: 1.59 |
| COc1ccc2c(c1OC)C(=O)O[C@@H]2[C@H]1c2c(cc3c(c2OC)OCO3)CCN1C.Cl [Noscapine hydrchloride] | inactive: 3.59 |
| CCOC(=O)C1=C[C@@H](OC(CC)CC)[C@H](NC(C)=O)[C@@H](N)C1.O=P(O)(O)O [Oseltamivir phosphate] | inactive: 1.86 |
| NC(=O)c1cc[n+](CC2=C(C(=O)[O-])N3C(=O)[C@@H](NC(=O)Cc4cccs4)[C@H]3SC2)cc1 | inactive: 1.16 |
| CC(=O)[C@@]1(O)CC[C@H]2[C@@H]3C=C(Cl)C4=CC(=O)[C@@H]5C[C@@H]5[C@]4(C)[C@H]3CC[C@@]21C | inactive: 4.98 |
| O=C(O)c1ccc2ccccc2c1O.OCc1cc(C(O)CNCCCCCCOCCCCc2ccccc2)ccc1O (configuration not stated) [Salmeterol Xinafoate] | inactive: -2.7 |
| COc1ccc2[nH]c(S(=O)Cc3ncc(C)c(OC)c3C)nc2n1 (configuration not stated) | inactive: -1.15 |
